{"source": "PubChem BioAssay AID504467", "about": "(National Center for Advancing Translational Sciences (NCATS), 2011)", "note": "Hit rate of the full screen: of about 330,000 compounds, about 7,700 (2.3%) were called active. The inconclusive results got no clear call from the source; some entries with a clear call stand among them for comparison. The call rests on the fitted dose curve; in most records, active means well fitted inhibition curve with a large enough effect; inconclusive means small, poorly fitted or top-dose-only effect, or effect the other way; inactive means flat fitted curve, though single readings scatter. A potency beside an inconclusive call is a rough fit, not a confirmed value. Potency means the concentration at half of the fitted maximal effect.", "data": [{"assay": "qHTS screen for small molecules that inhibit ELG1-dependent DNA repair in human embryonic kidney (HEK293T) cells expressing luciferase-tagged ELG1; further: nearly all actives have a fitted effect of over 55% in size", "details": "HEK293T ELG1-luciferase reporter, luminescence, 16 h, DNA damage induced by 5-fluorouridine; series mostly up to 46.1 µM", "method_in_brief": "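Quantitative HTS, concentration-response format. 2,000 cells/well co-treated with 5-fluorouridine and compound, 16 hr in 5% CO2 at 37 °C; ONE-Glo luminescence read after 30 min.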", "values": [{"smiles": "Cc1cc(NC(=O)/C=C/c2ccc(Br)cc2)no1", "Potency": "inconclusive: 14.6 µM [activator, single point]"}, {"smiles": "COc1ccc2cc(CO)c(Cl)nc2c1", "Potency": "inactive"}, {"smiles": "Cc1cc(C)cc(C(=O)Nc2cccc(NC(=O)c3ccco3)c2)c1", "Potency": "inconclusive: 10.3 µM [inhibitor, partial curve, poor fit]"}, {"smiles": "O=C(c1ccccn1)N(c1ccccc1)C1(C(=O)NC2CCCCC2)CCCCC1", "Potency": "inactive"}, {"smiles": "Cc1nn(-c2cccc(C(=O)O)c2)c(C)c1[N+](=O)[O-]", "Potency": "inactive"}, {"smiles": "O=C1c2ccccc2NC(c2cccs2)N1O", "note": "(stereo not drawn)", "Potency": "inactive"}, {"smiles": "CCc1ccc(NC(=O)CSc2nnc(CNC(=O)c3cccs3)o2)cc1", "Potency": "inactive"}, {"smiles": "C=CCNc1nc2c(c(=O)n(C)c(=O)n2C)n1Cc1ccc(F)cc1", "Potency": "inconclusive: 7.31 µM [inhibitor, partial curve]"}, {"smiles": "Cc1cc(Cl)c2oc(C(=O)NC3CCC(O)CC3)c(C)c2c1", "note": "(stereo not drawn)", "Potency": "inconclusive: 23.1 µM [activator, partial curve]"}, {"smiles": "Cc1ccc(C(=O)Nc2ccc3c(c2)OCO3)o1", "Potency": "inconclusive: 10 µM [activator, partial curve]"}, {"smiles": "CCc1ccc2c(CN3CCN(S(=O)(=O)c4ccc5c(c4)OCCO5)CC3)cc(=O)oc2c1", "Potency": "inconclusive: 29.1 µM [inhibitor, single point]"}, {"smiles": "COc1ccc(-c2c(-c3ccc(OCC(=O)NN)cc3O)n[nH]c2C)cc1OC", "Potency": "inconclusive: 23.1 µM [activator, single point]"}, {"smiles": "O=C(Nc1ccccc1C(=O)O)c1cccc(NC(=O)c2ccco2)c1", "Potency": "inconclusive: 18.3 µM [activator, single point]"}, {"smiles": "CCOC(=O)c1ccc(NC(=O)CN2CCN(CCN=CC3=C(O)CC(C)(C)CC3=O)CC2)cc1", "Potency": "inactive"}, {"smiles": "N/C(=N\\OC(=O)COc1ccc2ccccc2c1)c1ccccn1", "Potency": "inconclusive: 20.6 µM [activator, single point]"}, {"smiles": "CCN(CC)C(=O)c1ccc(Nc2nnc(-c3ccc(O)cc3)c3ccccc23)cc1", "Potency": "active: 16.4 µM"}, {"smiles": "CCOC(=O)c1ccc(-c2c(-c3ccc(OC)cc3)oc(=O)c3cc(OC)c(OC)cc23)cc1F", "Potency": "inconclusive: 5.17 µM [inhibitor, full curve]"}, {"smiles": "COc1ccc(OC)c(NC(=O)C2CCCN(S(=O)(=O)c3cccc4nonc34)C2)c1", "note": "(stereo not drawn)", "Potency": "inconclusive: 29.1 µM [inhibitor, single point]"}, {"smiles": "Clc1ccc(-c2nc3ccccn3c2CN2CCCCC2)cc1", "Potency": "inconclusive: 29.1 µM [activator, single point]"}, {"smiles": "COC(=O)C(Cc1ccccc1)NC(=O)CCNC(=O)c1ccc(Br)cc1", "note": "(stereo not drawn)", "Potency": "inconclusive: 16.4 µM [inhibitor, single point]"}, {"smiles": "CN1CCN(CCCNC(=O)CCc2nnc3n(Cc4ccccc4Cl)c(=O)c4ccccc4n23)CC1", "Potency": "inconclusive: 25.9 µM [activator, single point]"}, {"smiles": "O=C(CCCCCNc1nc(=S)[nH]c2ccccc12)NCCc1ccccc1", "Potency": "inconclusive: 18.4 µM [inhibitor, single point]"}, {"smiles": "O=C1CCC(C(=O)N2CCCCO2)CN1CCc1ccccc1", "note": "(stereo not drawn)", "Potency": "inconclusive: 16.4 µM [activator, partial curve]"}, {"smiles": "COc1ccc(CCNC(=O)CCSc2nc(-c3ccco3)cc(C(F)(F)F)n2)cc1OC", "Potency": "inconclusive: 9.2 µM [inhibitor, single point]"}, {"smiles": "O=C(CN1CCN(c2ccccc2)CC1)N/N=C/c1cccc(F)c1", "Potency": "inactive"}, {"smiles": "CN1CCN(c2ccc(NC(=O)c3ccc([N+](=O)[O-])o3)cc2Cl)CC1", "Potency": "inconclusive: 29.1 µM [activator, single point]"}, {"smiles": "Clc1ccc2nc(CSc3nnc4ccccn34)cn2c1", "Potency": "inconclusive: 7.31 µM [activator, partial curve]"}, {"smiles": "O=C1c2ccccc2C(=O)N1CCCc1c[nH]c2ccccc12", "Potency": "inconclusive: 16.4 µM [activator, partial curve, poor fit]"}, {"smiles": "CCN(CC)C(=O)Oc1ccc(NC(C)=O)cc1", "Potency": "inactive"}, {"smiles": "N#Cc1ccccc1N=Cc1ccc(Br)cc1", "Potency": "inconclusive: 20.6 µM [activator, single point]"}, {"smiles": "Cc1ccc(C2=NS(=O)(=O)N(C)C(C(=O)Nc3ccc4c(c3)OCO4)=C2)cc1", "Potency": "inconclusive: 16.4 µM [activator, partial curve, poor fit]"}, {"smiles": "CCOC(=O)CSc1ncc(-c2ccc([N+](=O)[O-])cc2)[nH]1", "Potency": "inconclusive: 23.1 µM [activator, single point]"}, {"smiles": "CC(C)n1nc(C(=O)Nc2nc3ccccc3[nH]2)c2ccccc2c1=O", "Potency": "inconclusive: 16.4 µM [inhibitor, partial curve]"}, {"smiles": "CC(=O)c1c(C)[nH]c(C(=O)Nc2ccc3c(c2)OCCO3)c1C", "Potency": "inconclusive: 4.11 µM [activator, partial curve]"}, {"smiles": "CCN(Cc1cc2ccccc2[nH]c1=O)S(=O)(=O)c1ccccc1", "Potency": "inconclusive: 7.31 µM [inhibitor, partial curve, poor fit]"}, {"smiles": "COc1ccc(NC(=O)CN(C)C(=O)CCNS(=O)(=O)c2ccc(Br)cc2)cc1", "Potency": "inactive"}, {"smiles": "O=C(c1ccc2c3c(cccc13)CC2)C1CCCN(C(=O)c2cccnc2)C1", "note": "(stereo not drawn)", "Potency": "inconclusive: 18.3 µM [inhibitor, single point]"}, {"smiles": "CC1(C)OC(=O)C(=NNc2ccccc2)C(=O)O1", "Potency": "inconclusive: 16.4 µM [activator, single point]"}, {"smiles": "Cc1ccc(CNC(=O)CS(=O)(=O)c2ccccc2)cc1", "Potency": "inconclusive: 11.6 µM [activator, partial curve, poor fit]"}, {"smiles": "O=C(NC1CCCC1)c1cc(-c2ccc(Cl)cc2Cl)on1", "Potency": "inconclusive: 8.2 µM [activator, partial curve]"}, {"smiles": "COc1cccc(NC(=O)CNC(=O)c2ccccc2)c1", "Potency": "inconclusive: 16.4 µM [activator, partial curve]"}, {"smiles": "CCOC(=O)c1c(N)nn(C(=O)C(C)C)c1-c1ccc(OC)cc1", "Potency": "inconclusive: 23.1 µM [inhibitor, partial curve, poor fit]"}, {"smiles": "CCCCOc1ccc(-c2cn3ccccc3n2)cc1[N+](=O)[O-]", "Potency": "inconclusive: 10.3 µM [activator, partial curve]"}, {"smiles": "COc1ccc(C(=O)NC2=NCCS2)cc1", "Potency": "inconclusive: 10.3 µM [activator, partial curve]"}, {"smiles": "CC1CCc2c(sc(Nc3nc4c(F)cccc4s3)c2C(N)=O)C1", "note": "(stereo not drawn)", "Potency": "inconclusive: 29.1 µM [inhibitor, single point]"}, {"smiles": "CCn1c(N2CCN(C(=S)NCC(C)C)CC2)nc2ccccc21", "Potency": "inconclusive: 29.1 µM [inhibitor, single point]"}, {"smiles": "CCn1ncc(C2=NOC(C(=O)Nc3c(C)n(C)n(-c4ccccc4)c3=O)C2)c1C", "note": "(stereo not drawn)", "Potency": "inactive"}, {"smiles": "COc1ccccc1/C=C/C(=O)Nc1ccc(N2CCOCC2)cc1", "Potency": "inactive"}, {"smiles": "CCOC(=O)c1sc(NC(=S)NC(=O)C2CCCC2)cc1C", "Potency": "inactive"}, {"smiles": "Clc1ccc(OCc2nc(-c3ccccn3)no2)c(Br)c1", "Potency": "inconclusive: 0.58 µM [activator, full curve]"}, {"smiles": "COC(=O)c1ccc(N=NNc2ccccc2)cc1", "Potency": "inconclusive: 6.51 µM [activator, partial curve]"}, {"smiles": "Nc1c(C(=O)NCc2ccco2)sc2nc3c(cc12)C(=O)CCC3", "Potency": "inconclusive: 1.64 µM [activator, partial curve, poor fit]"}, {"smiles": "Cc1ccc(N(C(=O)c2ccc(S(=O)(=O)N3CCCC3)cc2)C2C=CS(=O)(=O)C2)cc1", "note": "(stereo not drawn)", "Potency": "inactive"}, {"smiles": "CCN=C1SC(C(=O)Nc2ccc(OC)cc2)CC(=O)N1CC", "note": "(stereo not drawn)", "Potency": "inactive"}, {"smiles": "Cc1ccnc(NC(=O)CNC(=O)COc2ccccc2)c1", "Potency": "inconclusive: 9.2 µM [activator, partial curve]"}, {"smiles": "O=C(NNC(=O)c1ccc(NC(=O)c2ccccc2)cc1)c1ccccc1", "Potency": "inconclusive: 6.51 µM [inhibitor, single point]"}, {"smiles": "COc1ccc(C(C(=O)NC2CCCCC2)N(Cc2ccco2)C(=O)c2snc(C(N)=O)c2N)cc1", "note": "(stereo not drawn)", "Potency": "inconclusive: 29.1 µM [inhibitor, single point]"}, {"smiles": "Cn1cc(C(=O)c2ccc(Cl)cc2Cl)cc1C(=O)N/N=C(\\N)COc1cccc(C(F)(F)F)c1", "Potency": "inconclusive: 23.1 µM [inhibitor, single point]"}, {"smiles": "CC(=O)Nc1ccc(S(=O)(=O)NCCc2ccccn2)cc1", "Potency": "inactive"}, {"smiles": "CC1CN(S(=O)(=O)c2cccc(C(=O)OCCOc3ccccc3)c2)CC(C)O1", "note": "(stereo not drawn)", "Potency": "inconclusive: 9.2 µM [inhibitor, partial curve, poor fit]"}, {"smiles": "NC(=O)c1ccccc1N/C=C/C(=O)c1ccco1", "Potency": "inconclusive: 14.6 µM [activator, partial curve]"}, {"smiles": "CC(OC(=O)CCCC(=O)Nc1ccc(F)cc1)C(=O)c1ccccc1", "note": "(stereo not drawn)", "Potency": "inactive"}, {"smiles": "COC(=O)c1cccc(CSc2nc3ccccc3[nH]2)c1", "Potency": "inconclusive: 4.11 µM [activator, full curve]"}, {"smiles": "CCOC(=O)C1=C(COC(=O)Cc2ccc(Br)cc2)NC(=O)NC1C", "note": "(stereo not drawn)", "Potency": "inconclusive: 29.1 µM [activator, single point]"}, {"smiles": "COc1ccc(NC(=O)c2scc(S(=O)(=O)C(C)C)c2N)cc1", "Potency": "inconclusive: 5.8 µM [activator, partial curve]"}, {"smiles": "Cc1ccc(-c2ccc(/C=N\\NC(=O)C3C(=O)NCC3c3ccccc3)o2)cc1Cl", "note": "(stereo not drawn)", "Potency": "inconclusive: 16.4 µM [inhibitor, partial curve]"}, {"smiles": "c1ccc(COc2ccc(OCCCn3cncn3)cc2)cc1", "Potency": "inconclusive: 2.59 µM [activator, full curve]"}, {"smiles": "COc1ccc(-c2noc(-c3ccc(Br)o3)n2)cc1OC", "Potency": "inconclusive: 10 µM [activator, partial curve]"}]}]}
